Some of these results come from one statement about several compounds together. At least one compound was matched to its structure with a doubt left.
Assays:
[1] = tested on: PGE2 production from IL-1β-stimulated MG-63 cells; experiment: Suppressing action on PGE2 production from IL-1β-stimulated MG-63 cells; format: cell-based, human; details: 0.4 μM, IL-1β 1 ng/ml, 18 hours
From the text: 1. Suppressing Action on PGE2 Production from IL-1β-Stimulated MG-63 Cells (1) Method for Measurement
An action of suppressing PGE2 production caused by interleukin (IL) 1β as an inflammatory stimulant was studied by the following method. Cells of MG-63, which is a human osteosarcoma cell line (purchased from Dainippon Pharmaceutical), were suspended in EMEM medium (GIBCO) containing 10% fetal bovine serum (BioFluid), and then inoculated to each well of 96-well culture plate at a density of 2×10^4 cells/well and cultured overnight. The medium was changed to EMEM medium containing 0.5% fetal bovine serum, and then a test compound was added with each well. Human interleukin-1β (ENDOGEN) was further added as an inflammatory stimulant at a final concentration of 1 ng/ml. The cells were further cultured for 18 hours. The culture supernatant was collected, and the PGE2 concentration in the culture supernatant was measured by using EIA kit (CAYMAN). By using a well which was not added with the stimulant as a negative control and a well which was added only with the stimulant as a positive control, suppression ratios on PGE2 production were calculated from produced amounts of PGE2 in the well added with the test compound using the following equation. PGE2 production suppression ratio=[1−(C−B)/(A−B)]×100 • A: PGE2 production amount of positive control • B: PGE2 production amount of negative control • C: PGE2 production amount in well added with test compound

[2] = tested on: PGD2 production from IgE-stimulated RBL-2H3 cells; experiment: Suppressing action on PGD2 production from IgE-stimulated RBL-2H3 cells; format: cell-based, rat; details: 0.4 μM; IgE/DNP-BSA stimulated RBL-2H3 cells
From the text: (§1) 2. Suppressing Action on PGD2 and LTB4 Production from IgE-Stimulated RBL-2H3 Cells
(§2) Suppressing action on PGD2 and LTB4 production caused by IgE as an allergic stimulant was investigated by the following method. Cells of RBL-2H3, which is a rat mastocytoma cell line (purchased from ATCC), were suspended in DEMEM medium (GIBCO) containing 10% fetal bovine serum (BioFluid), inoculated to each well of 48-well culture plate at a density of 2×10^4 cells/well and cultured overnight. Then, IgE antiserum directed to dinitrophenylated BSA (henceforth DNP-BSA) was further added to each well, and the cells were cultured for 30 minutes. Then, the medium was changed to DEMEM medium containing 0.5% fetal bovine serum, a test compound was added with each well, and DNP-BSA was further added at a final concentration of 100 ng/ml as a stimulant. Ten minutes after the stimulant was added, the culture supernatant was collected, and the PGD2 concentration and LTB4 concentration in the culture supernatant were measured by using EIA kit (CAYMAN). By using a well which was not added with the stimulant as a negative control and a well which was added only with the stimulant as a positive control, suppressing ratios on mediator production were calculated from the production amounts of the mediators in the well added with the test compound using the following equation. PGD2 or LTB4 production suppression ratio=[1−(C−B)/(A−B)]×100 • A: PGD2 or LTB4 production amount of positive control • B: PGD2 or LTB4 production amount of negative control • C: PGD2 or LTB4 production amount in well added with test compound
(§3) Further, as control compounds for comparison, reference compound (1), 3-(2-cyclohexylmethyloxy-1,1′-biphenyl-5-yl)propionic acid described in WO99/19291, reference compounds (2) and (3), [2-(5,6,7,8-tetrahydro-5,5,8,8-tetramethyl-2-naphthalenyl)methyloxy-1,1′-biphenyl-5-yl]carboxylic acid [reference compound (2)] and 3-[3′-carboxy-2-(5,6,7,8-tetrahydro-5,5,8,8-tetramethyl-2naphthalenyl)methyloxy-1,1′-biphenyl-6-yl]propionic acid [reference compound (3)] described in U.S. Pat. No. 5,391,817 and Japanese Patent Unexamined Publication (Kokai) No. 7-22399, respectively, were used, and activities thereof were similarly measured.

[3] = tested on: LTB4 production from IgE-stimulated RBL-2H3 cells; experiment: Suppressing action on LTB4 production from IgE-stimulated RBL-2H3 cells; format: cell-based, rat; details: 0.4 μM; IgE/DNP-BSA stimulated RBL-2H3 cells
From the text: as §1, §2, §3

Compound | PGE2 production suppression ratio [1] [%] | PGD2 production suppression ratio [2] [%] | LTB4 production suppression ratio [3] [%]
3-(3-{6-[(2-aminoacetyl)amino]Naphthalen-2-yl}-4-cyclopentyl-methyloxyphenyl)propionic acid [Compound 078] | ≥ 50 | – | –
3-[3-(6-carbamoylaminonaphthalen-2-yl)-4-cyclopentyl-methyloxyphenyl]propionic acid [Compound 083] | ≥ 50 | – | –
3-[4-isopropyloxy-3-(1H-indol-5-yl)phenyl]propionate [Compound 173] | ≥ 50 | ≥ 50 | ≥ 50
CC(COc1ccc(CCC(=O)O)cc1-c1ccc2[nH]ccc2c1)Oc1ccccc1 (racemic) [Compound 603] | ≥ 50 | – | –
C[C@@H]1CCCC[C@H]1Oc1ccc(CCC(=O)O)cc1-c1ccc2[nH]ccc2c1 (relative stereo) [Compound 592] | ≥ 50 | ≥ 50 | ≥ 50
O=C(O)CCc1ccc(OCC2CCCC2)c(-c2ccc3cc(NC(=O)CO)ccc3c2)c1 [Compound 079, 3-(4-cyclopentylmethyloxy-3-{6-[2-(hydroxyacetyl)amino]naphthalen-2-yl}phenyl)propionic acid] | ≥ 50 | ≥ 50 | ≥ 50
CN(C)S(=O)(=O)Nc1ccc2cc(-c3cc(CCC(=O)O)ccc3OCC3CCCC3)ccc2c1 [Compound 087, 3-{4-cyclopentylmethyloxy-3-[6-(N,N-dimethylsulfamoylamino)naphthalen-2-yl]phenyl}propionic acid] | ≥ 50 | – | –
O=C(O)CCc1ccc(OCC2CCCC2)c(-c2ccc3ccc(NC(=O)CO)cc3c2)c1 [Compound 088, 3-{4-cyclopentylmethyloxy-3-(7-[2-(hydroxyacetyl)amino]naphthalen-2-yl}phenyl)propionic acid] | ≥ 50 | – | –
O=C(O)CCc1ccc(OCc2ccc(Br)cc2F)c(-c2ccc3[nH]ccc3c2)c1 [Compound 168] | ≥ 50 | – | –
O=C(O)CCc1ccc(OCCc2c[nH]c3ccccc23)c(-c2ccc3[nH]ccc3c2)c1 [Compound 219, 3-{3-(1H-indol-5-yl)-4-[2-(1H-indol-3-yl)ethyloxy]phenyl}propionic A] | ≥ 50 | – | –
Cn1ncc2c(-c3cc(CCC(=O)O)ccc3OC3CCCC3)cccc21 [Compound 433] | ≥ 50 | – | –
O=C(O)CCc1ccc(OC2CCCC2)c(-c2ccc3cn[nH]c3c2)c1 [Compound 437] | ≥ 50 | ≥ 50 | ≥ 50
Cn1ncc2ccc(-c3cc(CCC(=O)O)ccc3OC3CCCC3)cc21 [Compound 439] | ≥ 50 | – | –
Cn1cc2ccc(-c3cc(CCC(=O)O)ccc3OC3CCCC3)cc2n1 [Compound 441] | ≥ 50 | – | –
O=C(O)CCc1ccc(OC2CCCC2)c(-c2ccc3[nH]ncc3c2)c1 [Compound 443] | ≥ 50 | ≥ 50 | ≥ 50
Cn1ncc2cc(-c3cc(CCC(=O)O)ccc3OC3CCCC3)ccc21 [Compound 445] | ≥ 50 | ≥ 50 | ≥ 50
Cn1cc2cc(-c3cc(CCC(=O)O)ccc3OC3CCCC3)ccc2n1 [Compound 447] | ≥ 50 | – | –
CCn1ncc2cc(-c3cc(CCC(=O)O)ccc3OC3CCCC3)ccc21 [Compound 449] | ≥ 50 | ≥ 50 | ≥ 50
O=C(O)CCc1ccc(OCC2CCCC2)c(-c2ccc3[nH]ncc3c2)c1 [Compound 453] | ≥ 50 | ≥ 50 | ≥ 50
O=C(O)CCc1ccc(OC2CCCCC2)c(-c2ccc3[nH]ncc3c2)c1 [Compound 455] | ≥ 50 | ≥ 50 | ≥ 50
Cn1ncc2cc(-c3cc(CCC(=O)O)ccc3OC3CCCCC3)ccc21 [Compound 457] | ≥ 50 | ≥ 50 | ≥ 50
Cn1cc2cc(-c3cc(CCC(=O)O)ccc3OC3CCCCC3)ccc2n1 [Compound 459] | ≥ 50 | – | –

Compound | PGE2 production suppression ratio [1] [%] | PGD2 production suppression ratio [2] [%] | LTB4 production suppression ratio [3] [%]
O=C(O)CCc1ccc(OC2CCCCCC2)c(-c2ccc3[nH]ncc3c2)c1 [Compound 461] | ≥ 50 | ≥ 50 | ≥ 50
O=C(O)CCc1ccc(OC2CCCC2)c(-c2ccc3nccn3c2)c1 [Compound 495] | ≥ 50 | – | –
O=C(O)CCc1ccc(OC2CCCC2)c(-c2cnc3[nH]ccc3c2)c1 [Compound 497] | ≥ 50 | – | –
Cn1ccc2cc(-c3cc(CCC(=O)O)ccc3OC3CCCC3)cnc21 [Compound 499] | ≥ 50 | – | –
O=C(O)CCc1ccc(OCc2ccc(C(F)(F)F)cc2)c(-c2ccc3cnccc3c2)c1 [Compound 505] | ≥ 50 | – | –
O=C(O)CCc1ccc(OC2Cc3ccccc3C2)c(-c2ccc3cnccc3c2)c1 [Compound 507] | ≥ 50 | – | –
O=C(O)CCc1ccc(OC2CCCC2)c(-c2ccc3c(=O)[nH]ccc3c2)c1 [Compound 509] | ≥ 50 | – | –
Cn1ncc2cc(-c3cc(CCC(=O)O)ccc3OCCc3ccc(Cl)cc3)ccc21 [Compound 515] | ≥ 50 | – | –
Cn1ncc2cc(-c3cc(CCC(=O)O)ccc3OCc3ccc(Cl)cc3)ccc21 [Compound 517] | ≥ 50 | – | –
Cc1ccc(COc2ccc(CCC(=O)O)cc2-c2ccc3c(cnn3C)c2)cc1 [Compound 519] | ≥ 50 | – | –
Cn1ncc2cc(-c3cc(CCC(=O)O)ccc3OCCOc3ccc(F)cc3)ccc21 [Compound 521] | ≥ 50 | – | –
Cn1ncc2cc(-c3cc(CCC(=O)O)ccc3OCCOc3ccccc3)ccc21 [Compound 537] | ≥ 50 | – | –
Cn1ncc2cc(-c3cc(CCC(=O)O)ccc3OCCOc3ccc(Cl)cc3)ccc21 [Compound 539] | ≥ 50 | – | –
Cn1ncc2cc(-c3cc(CCC(=O)O)cc(N)c3OC3CCCC3)ccc21 [Compound 546] | ≥ 50 | – | –
Cn1ncc2cc(-c3cc(CCC(=O)O)cc(N)c3OCc3ccc(F)cc3)ccc21 [Compound 555] | ≥ 50 | – | –
CC(C)(C)CCOc1ccc(CCC(=O)O)cc1-c1ccc2[nH]ccc2c1 [Compound 591] | ≥ 50 | – | –
CC(Oc1ccc(CCC(=O)O)cc1-c1ccc2[nH]ccc2c1)C1CCCC1 (stereo not drawn) [Compound 595] | ≥ 50 | – | –
CC[C@@H](Oc1ccc(CCC(=O)O)cc1-c1ccc2[nH]ccc2c1)c1ccccc1 [Compound 597] | ≥ 50 | – | –
CC(Cc1ccccc1F)Oc1ccc(CCC(=O)O)cc1-c1ccc2[nH]ccc2c1 (stereo not drawn) [Compound 599] | ≥ 50 | – | –
O=C(O)CCc1ccc(OC2CCc3ccccc32)c(-c2ccc3[nH]ccc3c2)c1 (stereo not drawn) [Compound 601] | ≥ 50 | – | –
O=C(O)CCc1ccc(OCC2COc3ccccc3O2)c(-c2ccc3[nH]ccc3c2)c1 (stereo not drawn) [Compound 604] | ≥ 50 | – | –
CCN(CCOc1ccc(CCC(=O)O)cc1-c1ccc2[nH]ccc2c1)c1cccc(C)c1 [Compound 605] | ≥ 50 | – | –

— US6867320B2, “Substituted phenylalkanoic acid derivatives and use thereof” (Asahi Kasei Pharma Corporation, priority 2002, dated 2005)
